The list shows only some results of the screen, not a fair sample: it gathers tests that were run many times, whatever their T/C, doses with no T/C, and many T/C values between a quarter and a half above the control. Further doses and runs are listed elsewhere. T/C: endpoint of the treated group in % of that of the vehicle group. Some entries give survivors of the animals treated and no T/C: the source files T/C as zero there, which appears to mark a toxic dose or a test without result, not a measured value. Some survivor counts are full or nearly so, which does not show that the dose was tolerated: survival well below the control is almost never listed, so the zero probably covers shortened survival too. Survivors were counted at the toxicity check, usually on the fifth day, unless a day is given; later deaths do not show. Schedule codes are those of the source, read here as Q, the interval in days (D) or hours (H), X, the number of doses. Some entries hold several experiments; the results are listed from low to high. Where survival is the endpoint, the PubChem record calls one and a half times the control and up active, and a quarter to a half above the control has no call in these data; cut-offs in other NCI protocols can differ. Some T/C values are followed by the survivors on the day toxicity was checked, most often the fifth; without a count, all were alive then. Marks such as (2×) stand for listed records that agree.
Tested on: BDF1 mice, P388 leukemia ip, median survival T/C
Test: NCI In Vivo Anticancer Drug Screen. Data for tumor model P388 Leukemia (intraperitoneal) in B6D2F1 (BDF1) mice
Details: T/C endpoint: median survival time, higher T/C = longer survival
Summary of the method: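 Mice carrying the transplantable tumour receive compound or vehicle. Survival is followed in each arm, and the treated measure is divided by the vehicle measure.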

[1] = dose: 50.0 mg/kg/injection, schedule: Q01DX001 (ip), vehicle: Klucel (hydroxypropylcellulose) (HPC)
[2] = dose: 100.0 mg/kg/injection, schedule: Q01DX001 (ip), vehicle: Klucel (hydroxypropylcellulose) (HPC)

## CC(=O)NNC(=O)c1ccccn1
dose: 25.0 mg/kg/injection, schedule: Q01DX005 (ip), vehicle: Klucel (hydroxypropylcellulose) (HPC), evaluated on day 30
  T/C: 88, 90, 91, 92, 94 (2×), 96 (2×), 97 (2×), 98, 100 (2×), 101 (2×), 103 (2×), 105 (2×), 106 (3×), 107 (2×), 109, 115, 116, 117 (2×), 133 % of control
dose: 25.0 mg/kg/injection, schedule: Q01DX005 (ip), vehicle: Klucel (hydroxypropylcellulose) (HPC), evaluated on day 35
  T/C: 105 and 110 % of control
dose: 25.0 mg/kg/injection, schedule: Q01DX005 (ip), vehicle: Klucel (hydroxypropylcellulose) (HPC)
  survivor count: 6 of 6
dose: 25.0 mg/kg/injection, schedule: Q01DX009 (ip), vehicle: Klucel (hydroxypropylcellulose) (HPC), evaluated on day 30
  T/C: 90 (2×), 92, 93, 94, 95 (2×), 96 (3×), 97 (2×), 100 (4×), 102 (2×), 104 (2×), 105, 106 (2×), 107, 109, 110, 113, 114, 115, 120, 121, 123, 128, 139 % of control
dose: 25.0 mg/kg/injection, schedule: Q01DX009 (ip), vehicle: Klucel (hydroxypropylcellulose) (HPC), evaluated on day 35
  T/C: 92 % of control
dose: 25.0 mg/kg/injection, schedule: Q01DX009 (ip), vehicle: Klucel (hydroxypropylcellulose) (HPC)
  survivor count: 3 of 3
[1]
  T/C: 95, 98, 99 (4×), 100 (2×), 101 (2×), 102 (2×), 103, 104 (2×), 106 (3×), 107 (4×), 108, 109, 110, 115, 117, 119 % of control
  survivor count: 6 of 6
dose: 50.0 mg/kg/injection, schedule: Q01DX005 (ip), vehicle: Klucel (hydroxypropylcellulose) (HPC), evaluated on day 30
  T/C: 87, 93, 94, 95, 96 (2×), 97, 98 (2×), 99, 100 (4×), 101 (3×), 102 (2×), 104 (2×), 105 (2×), 106 (2×), 108, 112, 114, 117, 121, 136 % of control
dose: 50.0 mg/kg/injection, schedule: Q01DX005 (ip), vehicle: Klucel (hydroxypropylcellulose) (HPC), evaluated on day 35
  T/C: 96 and 103 % of control
dose: 50.0 mg/kg/injection, schedule: Q01DX009 (ip), vehicle: Klucel (hydroxypropylcellulose) (HPC), evaluated on day 30
  T/C: 90, 92 (2×), 94 (3×), 95, 96 (2×), 97 (4×), 98 (2×), 100 (5×), 105, 106 (4×), 107 (2×), 111, 114, 115, 118, 119 % of control (2×)
dose: 50.0 mg/kg/injection, schedule: Q01DX009 (ip), vehicle: Klucel (hydroxypropylcellulose) (HPC), evaluated on day 35
  T/C: 93 % of control
dose: 50.0 mg/kg/injection, schedule: Q01DX009 (ip), vehicle: Klucel (hydroxypropylcellulose) (HPC)
  survivor count: 2 of 3 and 6 of 6
dose: 50.0 mg/kg/injection, schedule: Q04DX002 (ip), vehicle: Klucel (hydroxypropylcellulose) (HPC), evaluated on day 30
  T/C: 87, 90, 92, 94 (3×), 96, 97 (2×), 98 (4×), 100, 101 (3×), 103, 103 [2 of 3 alive], 104 (2×), 112, 115 (2×), 116, 119, 120 (2×), 126 % of control
dose: 50.0 mg/kg/injection, schedule: Q04DX002 (ip), vehicle: Klucel (hydroxypropylcellulose) (HPC), evaluated on day 35
  T/C: 94 % of control
dose: 50.0 mg/kg/injection, schedule: Q04DX002 (ip), vehicle: Klucel (hydroxypropylcellulose) (HPC)
  survivor count: 3 of 3
dose: 50.0 mg/kg/injection, schedule: Q04DX003 (ip), vehicle: Klucel (hydroxypropylcellulose) (HPC), evaluated on day 30
  T/C: 87, 95 (2×), 96 (2×), 97, 98, 99, 100 (5×), 101 (3×), 102, 103 (5×), 104 (2×), 106, 112, 120, 123, 125 % of control
dose: 50.0 mg/kg/injection, schedule: Q04DX003 (ip), vehicle: Klucel (hydroxypropylcellulose) (HPC), evaluated on day 35
  T/C: 109 % of control
dose: 50.0 mg/kg/injection, schedule: Q04DX003 (ip), vehicle: Klucel (hydroxypropylcellulose) (HPC)
  survivor count: 3 of 3 and 6 of 6
[2]
  T/C: 92, 94 (2×), 95 (3×), 97, 98, 99 (3×), 100 (3×), 101 (2×), 102 (3×), 104, 106, 108 (2×), 110, 111, 112, 115, 117, 118 % of control
  survivor count: 6 of 6
dose: 100.0 mg/kg/injection, schedule: Q01DX005 (ip), vehicle: Klucel (hydroxypropylcellulose) (HPC), evaluated on day 30
  T/C: 86, 91, 92, 93 (2×), 94 (2×), 96 (2×), 97, 100 (2×), 101 (2×), 102, 104, 105, 107, 108, 110, 112 (3×), 113, 114, 116, 123, 124, 131, 152 % of control
dose: 100.0 mg/kg/injection, schedule: Q01DX005 (ip), vehicle: Klucel (hydroxypropylcellulose) (HPC), evaluated on day 35
  T/C: 88 and 110 % of control
dose: 100.0 mg/kg/injection, schedule: Q01DX005 (ip), vehicle: Klucel (hydroxypropylcellulose) (HPC)
  survivor count: 3 of 3
dose: 100.0 mg/kg/injection, schedule: Q01DX009 (ip), vehicle: Klucel (hydroxypropylcellulose) (HPC), evaluated on day 30
  T/C: 86, 87 (2×), 88, 89, 90, 92, 92 [2 of 3 alive], 93, 94, 95, 96, 97 (2×), 98 (2×), 99, 100 (4×), 102 (2×), 103 (2×), 107, 111, 116 (2×), 118, 121, 122, 123, 128 % of control
dose: 100.0 mg/kg/injection, schedule: Q01DX009 (ip), vehicle: Klucel (hydroxypropylcellulose) (HPC), evaluated on day 35
  T/C: 99 % of control
dose: 100.0 mg/kg/injection, schedule: Q01DX009 (ip), vehicle: Klucel (hydroxypropylcellulose) (HPC)
  survivor count: 3 of 3
dose: 100.0 mg/kg/injection, schedule: Q01DX009 (ip), vehicle: water
  T/C: 136 % of control [5 of 6 alive]
dose: 100.0 mg/kg/injection, schedule: Q04DX002 (ip), vehicle: Klucel (hydroxypropylcellulose) (HPC), evaluated on day 30
  T/C: 91 (2×), 94, 95, 96 (2×), 98, 99 (3×), 100 (2×), 101 (3×), 103, 104, 106, 107 (3×), 109, 110, 112 (2×), 114 (2×), 115, 116 % of control
dose: 100.0 mg/kg/injection, schedule: Q04DX002 (ip), vehicle: Klucel (hydroxypropylcellulose) (HPC), evaluated on day 35
  T/C: 104 % of control
dose: 100.0 mg/kg/injection, schedule: Q04DX002 (ip), vehicle: Klucel (hydroxypropylcellulose) (HPC)
  survivor count: 3 of 3
dose: 100.0 mg/kg/injection, schedule: Q04DX003 (ip), vehicle: Klucel (hydroxypropylcellulose) (HPC), evaluated on day 30
  T/C: 88, 90, 93 (3×), 94 (2×), 95, 96, 97 (3×), 98, 99 (2×), 100 (6×), 102, 103, 105, 108, 111, 112, 114, 131 % of control
dose: 100.0 mg/kg/injection, schedule: Q04DX003 (ip), vehicle: Klucel (hydroxypropylcellulose) (HPC), evaluated on day 35
  T/C: 131 % of control

Source: PubChem BioAssay AID328 (DTP/NCI, 2004)
